“Also recorded” adds a separate entry of the source.
Tested on: mice
Assay: ET1 footpad injection, von Frey withdrawal thresholds
Format: in vivo, mouse
Conditions: WT and oil-treated iKO (control) mice

**Q.** How did the “mechanical allodynia / von Frey withdrawal thresholds after footpad injection” value turn out when endothelin-1 [ET1] was run?
**A.** significantly lowered; also recorded: significant levels of mechanical allodynia

From patent US11229628B2, “TRPA1 and TRPV4 inhibitors and methods of using the same for organ-specific inflammation and itch” (Duke University, priority 2015, dated 2022)
